In PubChem BioAssay AID248 (DTP/NCI, 2004):
The list shows only some results of the screen, not a fair sample: it gathers tests that were run many times, whatever their T/C, doses with no T/C, and many T/C values between a quarter and a half above the control. Further doses and runs are listed elsewhere. T/C is the treated group as % of the vehicle group. Some doses have a count of surviving animals in place of a T/C: the source holds a T/C of zero for them, seemingly a mark for toxic or unscored doses. Some survivor counts are full or nearly so, which does not show that the dose was tolerated: the source hardly ever lists a survival T/C far under the control, and the zero likely stands for such cases as well. Counts of survivors are from the toxicity check (mostly the fifth day) where no day follows; animals may have died later. Schedules are NCI's codes, read here as Q, the interval in days (D) or hours (H), X, the number of doses. Some entries hold several experiments; the values are given in rising order. Some schedule codes hold Z or #, which are not explained here. Where survival is the endpoint, this PubChem deposit counts one and a half times the control or more as active, and values a quarter to a half above the control carry no call in these data; other NCI protocols may use other cut-offs. Signs of the kind (2×) say how often a value occurs here. Some T/C values are followed by the survivors on the day toxicity was checked, most often the fifth; without a count, all were alive then.

System: L1210 leukemia ip in BDF1 mice, survival T/C
Assay: NCI In Vivo Anticancer Drug Screen. Data for tumor model L1210 Leukemia (intraperitoneal) in B6D2F1 (BDF1) mice
Details: higher T/C = longer survival

CN(N=O)C(=O)N[C@@H](C=O)[C@@H](O)[C@H](O)[C@H](O)CO
T/C (T/C endpoint: mean survival time, dose: 12.5 mg/kg/injection, schedule: Q01DX009 (ip), vehicle: water): 146 % of control
T/C (T/C endpoint: mean survival time, dose: 12.6 mg/kg/injection, schedule: Q01DX Z (ip), vehicle: water): 125 % of control
T/C (T/C endpoint: mean survival time, dose: 18.0 mg/kg/injection, schedule: Q01DX009 (ip), vehicle: other): 99, 105, 109, 130 % of control
T/C (T/C endpoint: mean survival time, dose: 24.6 mg/kg/injection, schedule: Q01DX Z (ip), vehicle: water): 143 % of control
T/C (T/C endpoint: mean survival time, dose: 25.0 mg/kg/injection, schedule: Q01DX009 (ip), vehicle: citric acid): 136 % of control
T/C (T/C endpoint: mean survival time, dose: 25.0 mg/kg/injection, schedule: Q01DX009 (ip), vehicle: saline, evaluated on day 18): 107 % of control
T/C (T/C endpoint: mean survival time, dose: 25.0 mg/kg/injection, schedule: Q01DX009 (ip), vehicle: saline, evaluated on day 23): 109 % of control
T/C (T/C endpoint: mean survival time, dose: 25.0 mg/kg/injection, schedule: Q01DX009 (ip), vehicle: saline, evaluated on day 30): 112 % of control
T/C (T/C endpoint: mean survival time, dose: 25.0 mg/kg/injection, schedule: Q01DX009 (ip), vehicle: saline, evaluated on day 60): 101 and 103 % of control
T/C (T/C endpoint: mean survival time, dose: 32.0 mg/kg/injection, schedule: Q01DX017 (ip), vehicle: other): 130 % of control
T/C (T/C endpoint: mean survival time, dose: 33.0 mg/kg/injection, schedule: Q04DX002 (ip), vehicle: other): 97, 103, 105, 106 % of control
T/C (T/C endpoint: mean survival time, dose: 35.0 mg/kg/injection, schedule: Q01DX009 (ip), vehicle: other): 110, 126, 131, 133 % of control
T/C (T/C endpoint: mean survival time, dose: 50.0 mg/kg/injection, schedule: Q01DX009 (ip), vehicle: other): 137 % of control
T/C (T/C endpoint: mean survival time, dose: 50.0 mg/kg/injection, schedule: Q01DX009 (ip), vehicle: saline, evaluated on day 18): 112 % of control
T/C (T/C endpoint: mean survival time, dose: 50.0 mg/kg/injection, schedule: Q01DX009 (ip), vehicle: saline, evaluated on day 23): 100 % of control
T/C (T/C endpoint: mean survival time, dose: 50.0 mg/kg/injection, schedule: Q01DX009 (ip), vehicle: saline, evaluated on day 30): 134 % of control
T/C (T/C endpoint: mean survival time, dose: 50.0 mg/kg/injection, schedule: Q01DX009 (ip), vehicle: saline, evaluated on day 60): 100 and 103 % of control
T/C (T/C endpoint: mean survival time, dose: 50.0 mg/kg/injection, schedule: Q01DX009 (ip), vehicle: water): 137, 143, 148 % of control
T/C (T/C endpoint: mean survival time, dose: 50.0 mg/kg/injection, schedule: Q01DX Z (ip), vehicle: water): 137 % of control
T/C (T/C endpoint: mean survival time, dose: 64.0 mg/kg/injection, schedule: Q01DX017 (ip), vehicle: other): 128 % of control
T/C (T/C endpoint: mean survival time, dose: 64.0 mg/kg/injection, schedule: Q02DX009 (ip), vehicle: other): 131 % of control
T/C (T/C endpoint: mean survival time, dose: 64.0 mg/kg/injection, schedule: Q## X009 (ip), vehicle: other): 140 % of control
T/C (T/C endpoint: mean survival time, dose: 65.0 mg/kg/injection, schedule: Q04DX002 (ip), vehicle: other): 101, 103, 110, 116 % of control
T/C (T/C endpoint: mean survival time, dose: 67.0 mg/kg/injection, schedule: Q01DX009 (ip), vehicle: citric acid): 148 % of control
T/C (T/C endpoint: mean survival time, dose: 69.0 mg/kg/injection, schedule: Q01DX009 (ip), vehicle: other): 133, 135, 147, 156 % of control
T/C (T/C endpoint: mean survival time, dose: 99.5 mg/kg/injection, schedule: Q01DX Z (ip), vehicle: water): 136 % of control
T/C (T/C endpoint: mean survival time, dose: 99.6 mg/kg/injection, schedule: Q01DX Z (ip), vehicle: water): 145 % of control
T/C (T/C endpoint: mean survival time, dose: 100.0 mg/kg/injection, schedule: Q01DX009 (ip), vehicle: saline, evaluated on day 18): 121 % of control
T/C (T/C endpoint: mean survival time, dose: 100.0 mg/kg/injection, schedule: Q01DX009 (ip), vehicle: saline, evaluated on day 23): 100 % of control
T/C (T/C endpoint: mean survival time, dose: 100.0 mg/kg/injection, schedule: Q01DX009 (ip), vehicle: saline, evaluated on day 30): 155 % of control
T/C (T/C endpoint: mean survival time, dose: 100.0 mg/kg/injection, schedule: Q01DX009 (ip), vehicle: saline, evaluated on day 60): 102 and 103 % of control
T/C (T/C endpoint: mean survival time, dose: 100.0 mg/kg/injection, schedule: Q01DX009 (ip), vehicle: water): 138 % of control
T/C (T/C endpoint: mean survival time, dose: 100.0 mg/kg/injection, schedule: Q04DX002 (ip), vehicle: saline): 126 % of control
survivor count (T/C endpoint: mean survival time, dose: 128.0 mg/kg/injection, schedule: Q01DX017 (ip), vehicle: other): 10 of 10
T/C (T/C endpoint: mean survival time, dose: 128.0 mg/kg/injection, schedule: Q## X009 (ip), vehicle: other): 125 % of control [9 of 10 alive]
T/C (T/C endpoint: mean survival time, dose: 130.0 mg/kg/injection, schedule: Q04DX002 (ip), vehicle: other): 107, 116 (2×), 129 % of control
survivor count (T/C endpoint: mean survival time, dose: 138.0 mg/kg/injection, schedule: Q01DX009 (ip), vehicle: other): 6 of 6
T/C (T/C endpoint: mean survival time, dose: 150.0 mg/kg/injection, schedule: Q01DX009 (ip), vehicle: citric acid): 128 % of control
survivor count (T/C endpoint: mean survival time, dose: 200.0 mg/kg/injection, schedule: Q01DX009 (ip), vehicle: citric acid): 7 of 10
survivor count (T/C endpoint: mean survival time, dose: 200.0 mg/kg/injection, schedule: Q01DX009 (ip), vehicle: other): 3 of 6
T/C (T/C endpoint: mean survival time, dose: 200.0 mg/kg/injection, schedule: Q01DX009 (ip), vehicle: saline, evaluated on day 18): 112 % of control
T/C (T/C endpoint: mean survival time, dose: 200.0 mg/kg/injection, schedule: Q01DX009 (ip), vehicle: saline, evaluated on day 23): 106 % of control
T/C (T/C endpoint: mean survival time, dose: 200.0 mg/kg/injection, schedule: Q01DX009 (ip), vehicle: saline, evaluated on day 30): 107 % of control
T/C (T/C endpoint: mean survival time, dose: 200.0 mg/kg/injection, schedule: Q01DX009 (ip), vehicle: saline, evaluated on day 60): 91 % of control
survivor count (T/C endpoint: mean survival time, dose: 200.0 mg/kg/injection, schedule: Q01DX009 (ip), vehicle: water): 0 of 6
survivor count (T/C endpoint: mean survival time, dose: 200.0 mg/kg/injection, schedule: Q01DX Z (ip), vehicle: water): 7 of 7
T/C (T/C endpoint: mean survival time, dose: 200.0 mg/kg/injection, schedule: Q04DX002 (ip), vehicle: acid diluted with saline): 142 % of control
T/C (T/C endpoint: mean survival time, dose: 200.0 mg/kg/injection, schedule: Q04DX002 (ip), vehicle: saline): 134 and 149 % of control
survivor count (T/C endpoint: mean survival time, dose: 256.0 mg/kg/injection, schedule: Q01DX017 (ip), vehicle: other): 0 of 10
survivor count (T/C endpoint: mean survival time, dose: 256.0 mg/kg/injection, schedule: Q02DX009 (ip), vehicle: other): 9 of 10
survivor count (T/C endpoint: mean survival time, dose: 256.0 mg/kg/injection, schedule: Q## X009 (ip), vehicle: other): 0 of 10
T/C (T/C endpoint: mean survival time, dose: 259.0 mg/kg/injection, schedule: Q04DX002 (ip), vehicle: other): 114, 120, 130, 147 % of control
T/C (T/C endpoint: mean survival time, dose: 350.0 mg/kg/injection, schedule: Q01DX001 (ip), vehicle: citric acid): 142 % of control [8 of 10 alive]
T/C (T/C endpoint: mean survival time, dose: 400.0 mg/kg/injection, schedule: Q01DX001 (ip), vehicle: citric acid): 127 % of control [9 of 10 alive]
survivor count (T/C endpoint: mean survival time, dose: 400.0 mg/kg/injection, schedule: Q01DX001 (ip), vehicle: other): 2 of 6
survivor count (T/C endpoint: mean survival time, dose: 400.0 mg/kg/injection, schedule: Q04DX002 (ip), vehicle: acid diluted with saline): 3 of 3
survivor count (T/C endpoint: mean survival time, dose: 500.0 mg/kg/injection, schedule: Q04DX002 (ip), vehicle: acid diluted with saline): 0 of 3
survivor count (T/C endpoint: mean survival time, dose: 518.0 mg/kg/injection, schedule: Q04DX002 (ip), vehicle: other): 1 of 6
T/C (T/C endpoint: median survival time, dose: 23.0 mg/kg/injection, schedule: Q01DX009 (ip), vehicle: Klucel (hydroxypropylcellulose) (HPC)): 133 % of control
T/C (T/C endpoint: median survival time, dose: 39.0 mg/kg/injection, schedule: Q01DX009 (ip), vehicle: water): 132 % of control
T/C (T/C endpoint: median survival time, dose: 58.0 mg/kg/injection, schedule: Q01DX009 (ip), vehicle: water): 129 and 139 % of control
T/C (T/C endpoint: median survival time, dose: 65.0 mg/kg/injection, schedule: Q01DX009 (ip), vehicle: Klucel (hydroxypropylcellulose) (HPC)): 138 % of control
T/C (T/C endpoint: median survival time, dose: 87.0 mg/kg/injection, schedule: Q01DX009 (ip), vehicle: water): 125 % of control
T/C (T/C endpoint: median survival time, dose: 108.0 mg/kg/injection, schedule: Q01DX009 (ip), vehicle: Klucel (hydroxypropylcellulose) (HPC)): 127 % of control
survivor count (T/C endpoint: median survival time, dose: 130.0 mg/kg/injection, schedule: Q01DX009 (ip), vehicle: water): 7 of 8
survivor count (T/C endpoint: median survival time, dose: 200.0 mg/kg/injection, schedule: Q01DX009 (ip), vehicle: water): 4 of 8 and 8 of 8
